# Reference: patent US20180354920A1, “SUBSTITUTED OXADIAZOLES FOR COMBATING PHYTOPATHOGENIC FUNGI” (BASF SE, priority 2015, published 2018)
# Some results were stated once for a whole list of compounds, not compound by compound.
# Experiments:
# [1] = tested on: Phakopsora pachyrhizi; assay: Curative control of soy bean rust on soy beans (glass house trial); type: in vivo; details: 32 ppm active compound, curative spray after inoculation, soy bean seedlings, assessed after 14 days; untreated plants 100%
# [2] = tested on: Phakopsora pachyrhizi; assay: Protective control of soy bean rust on soy beans (glass house trial); type: in vivo; details: 32 ppm active compound, protective spray 2 days before inoculation, soy bean seedlings, assessed after 14 days; untreated plants 90%
smiles,measurement,setting,value
"CCC(=O)Nc1ccc(-c2noc(C(F)(F)F)n2)cn1 [Ex-1, N-[5-[5-(trifluoromethyl)-1,2,4-oxadiazol-3-yl]-2-pyridyl]propanamide]",diseased leaf area,[1],at most 5%
same,diseased leaf area,[2],at most 20%
